In patent US20220242927A1:
No constants are given. Whether binding was seen depends on the method and setting. Some results given as binding are weak or reduced against the parent protein; the word gives no strength. Sequences can lack the tags named with a protein.

Sequences of proteins named here, by UniProt entry; tags and fusion partners are left off. Residues count along the entry.
UniProt P22004, residues 382-513: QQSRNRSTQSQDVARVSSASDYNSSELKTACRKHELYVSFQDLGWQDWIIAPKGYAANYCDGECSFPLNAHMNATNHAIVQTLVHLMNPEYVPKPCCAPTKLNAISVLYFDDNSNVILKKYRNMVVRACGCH

Assays:
BMP6 [1] = target: BMP6 (UniProt P22004); assay: SPR (Biacore), legend of FIG. 6
GDF11 [2] = target: T1, GDF11 (UniProt O95390); assay: SPR (Biacore), legend of FIG. 6
T1 sequence (looked up): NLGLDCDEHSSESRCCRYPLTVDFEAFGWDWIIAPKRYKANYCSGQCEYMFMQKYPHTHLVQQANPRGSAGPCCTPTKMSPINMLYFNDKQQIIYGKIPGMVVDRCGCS

GDF8 [3] = target: T2, GDF8 (UniProt O14793); assay: SPR (Biacore), legend of FIG. 6
T2 sequence (looked up): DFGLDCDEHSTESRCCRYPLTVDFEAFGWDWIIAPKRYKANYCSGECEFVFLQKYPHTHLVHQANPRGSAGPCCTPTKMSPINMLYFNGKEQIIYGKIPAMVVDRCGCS

BMP6 [4] = target: BMP6 (UniProt P22004); assay: SPR (Biacore), comparative binding data
GDF11 [5] = target: T1, GDF11; assay: SPR (Biacore), comparative binding data
GDF8 [6] = target: T2, GDF8; assay: SPR (Biacore), comparative binding data
Activin B = target: T3, Activin B (UniProt P09529); assay: SPR (Biacore), binding data recalled in the reporter assay text
T3 sequence (looked up): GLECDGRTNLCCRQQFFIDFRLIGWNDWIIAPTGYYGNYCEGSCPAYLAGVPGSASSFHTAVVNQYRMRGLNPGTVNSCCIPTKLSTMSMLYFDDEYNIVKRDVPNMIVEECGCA

GDF11 [7] = target: T1, GDF11; assay: as above
GDF8 [8] = target: T2, GDF8; assay: as above

Measured: binding

B1: ActRIIB-Fc homodimer (Fc fusion, UniProt Q13705 20-134, looked up, not shown: a dimerising Fc or GST)
chain: GRGEAETRECIYYNANWELERTNQSGLERCEGEQDKRLHCYASWRNSSGTIELVKKGCWLDDFNCYDRQECVATEENPQVYFCCCEGNFCNERFTHLPEAGGPEVTYEPPPTAPT
binds: all assays above
